{
  "source": "ChEMBL document CHEMBL2040793",
  "about": "“Thieno[3,2-c]pyran-4-one based novel small molecules: their synthesis, crystal structure analysis and in vitro evaluation as potential anticancer agents” (Bioorg Med Chem Lett, 2012)",
  "tested_on": "HepG2",
  "test": "Cytotoxicity against human HepG2 cells after 24 hrs by MTT assay",
  "format": "functional, cell-based",
  "conditions": "HepG2, 24 h",
  "data": [
    {"smiles": "COc1cccc2c1C(=O)c1c(O)c3c(c(O)c1C2=O)C[C@@](O)(C(=O)CO)C[C@@H]3O[C@H]1C[C@H](N)[C@H](O)[C@H](C)O1", "note": "[DOXORUBICIN]", "values": [
      {"measurement": "IC50", "value": 5, "unit": "µM"}
    ]}
  ]
}
